Some results were stated once for a whole list of compounds, not compound by compound.
Test system: Osteoclast precursor cells
Assay: Osteoclast differentiation assay (acid phosphatase readout)
Assay type: cell-based

| SMILES | activity in the osteoclast differentiation assay |
| --- | --- |
| Clc1cnc2[nH]cc(Cc3cnc(NC4CCCCCC4)nc3)c2c1 [Compound P-3006, [5-(5-Chloro-1H-pyrrolo[2,3-b]pyridin-3-ylmethyl)-pyrimidin-2-yl]-cycloheptyl-amine] | showed activity |
| Fc1nc(Nc2ccc(C3CC3)nc2)ccc1Cc1c[nH]c2ncnc(NCC(F)(F)F)c12 [Compound P-4130, 5-[[6-[(6-cyclopropyl-3-pyridyl)amino]-2-fluoro-3-pyridyl]methyl]-N-(2,2,2-trifluoroethyl)-7H-pyrrolo[2,3-d]pyrimidin-4-amine] | showed activity |
| CNc1ncnc2[nH]cc(C(=O)c3ccc(NC4CCCCC4)nc3Cl)c12 [Compound P-4110, [2-chloro-6-(cyclohexylamino)-3-pyridyl]-[4-(methylamino)-7H-pyrrolo[2,3-d]pyrimidin-5-yl]methanone] | showed activity |
| CCCCNc1ncnc2[nH]cc(C(=O)c3ccc(Nc4ccc(OC)nc4)nc3F)c12 [Compound P-4080, [4-(butylamino)-7H-pyrrolo[2,3-d]pyrimidin-5-yl]-[2-fluoro-6-[(6-methoxy-3-pyridyl)amino]-3-pyridyl]methanone] | showed activity |
| COc1ccc(Nc2ccc(C(=O)c3c[nH]c4ncnc(N5CCOCC5)c34)c(F)n2)cn1 [Compound P-4070, [2-fluoro-6-[(6-methoxy-3-pyridyl)amino]-3-pyridyl]-(4-morpholino-7H-pyrrolo[2,3-d]pyrimidin-5-yl)methanone] | showed activity |
| CCCNc1ncnc2[nH]cc(C(=O)c3ccc(Nc4ccc(OC)nc4)nc3F)c12 [Compound P-4068, [2-fluoro-6-[(6-methoxy-3-pyridyl)amino]-3-pyridyl]-[4-(propylamino)-7H-pyrrolo[2,3-d]pyrimidin-5-yl]methanone] | showed activity |
| Clc1cnc2[nH]cc(Cc3cnc(NC4CCCCC4)nc3)c2c1 [Compound P-3001, [5-(5-chloro-1H-pyrrolo[2,3-b]pyridin-3-ylmethyl)-pyrimidin-2-yl]-cyclohexyl-amine] | showed activity |
| COc1ccc(Nc2ccc(C(=O)c3c[nH]c4ncnc(NCc5ccc(C(F)(F)F)nc5)c34)c(F)n2)cn1 [Compound P-4071, [2-fluoro-6-[(6-methoxy-3-pyridyl)amino]-3-pyridyl]-[4-[[6-(trifluoromethyl)-3-pyridyl]methylamino]-7H-pyrrolo[2,3-d]pyrimidin-5-yl]methanone] | showed activity |
| CCc1ccc(Nc2ccc(C(=O)c3c[nH]c4ncnc(NC(C)C)c34)c(F)n2)cn1 [Compound P-4117, [6-[(6-ethyl-3-pyridyl)amino]-2-fluoro-3-pyridyl]-[4-(isopropylamino)-7H-pyrrolo[2,3-d]pyrimidin-5-yl]methanone] | showed activity |
| CCc1ccc(Nc2ccc(C(=O)c3c[nH]c4ncnc(NC5CCC(F)(F)CC5)c34)c(F)n2)cn1 [Compound P-4096, [4-[(4,4-difluorocyclohexyl)amino]-7H-pyrrolo[2,3-d]pyrimidin-5-yl]-[6-[(6-ethyl-3-pyridyl)amino]-2-fluoro-3-pyridyl]methanone] | showed activity |
| CCc1ccc(Nc2ccc(Cc3c[nH]c4ncnc(OCCOC)c34)c(F)n2)cn1 [Compound P-4016, (6-Ethyl-pyridin-3-yl)-{6-fluoro-5-[4-(2-methoxy-ethoxy)-7H-pyrrolo[2,3-d]pyrimidin-5-ylmethyl]-pyridin-2-yl}-amine] | showed activity |
| CCOc1ccc(Nc2ccc(C(=O)c3c[nH]c4ncc(C)cc34)c(F)n2)cn1 [Compound P-3045, [6-(6-ethoxy-pyridin-3-ylamino)-2-fluoro-pyridin-3-yl]-(5-methyl-1H-pyrrolo[2,3-b]pyridin-3-yl)-methanone] | showed activity |
| CCOc1ccc(Nc2ccc(C(=O)c3c[nH]c4ncnc(C5CC5)c34)c(F)n2)cn1 [Compound P-4027, (4-Cyclopropyl-7H-pyrrolo[2,3-d]pyrimidin-5-yl)-[6-(6-ethoxy-pyridin-3-ylamino)-2-fluoro-pyridin-3-yl]-methanone] | showed activity |
| CCOc1ccc(Nc2ccc(Cc3c[nH]c4ncnc(OCCOC)c34)c(F)n2)cn1 [Compound P-4008, (6-Ethoxy-pyridin-3-yl)-{6-fluoro-5-[4-(2-methoxy-ethoxy)-7H-pyrrolo[2,3-d]pyrimidin-5-ylmethyl]-pyridin-2-yl}-amine] | showed activity |
| CCOc1ccc(Nc2ccc(Cc3c[nH]c4ncc(C)cc34)c(F)n2)cn1 [Compound P-3039, (6-ethoxy-pyridin-3-yl)-[6-fluoro-5-(5-methyl-1H-pyrrolo[2,3-b]pyridin-3-ylmethyl)-pyridin-2-yl]-amine] | showed activity |
| COc1ccc(Nc2ccc(C(=O)c3c[nH]c4ncnc(NC5CCC5)c34)c(F)n2)cn1 [Compound P-4076, [4-(cyclobutylamino)-7H-pyrrolo[2,3-d]pyrimidin-5-yl]-[2-fluoro-6-[(6-methoxy-3-pyridyl)amino]-3-pyridyl]methanone] | showed activity |

| SMILES | activity in the osteoclast differentiation assay |
| --- | --- |
| CCc1ccc(Nc2ccc(C(=O)c3c[nH]c4ncnc(NCC5CC5)c34)c(F)n2)cn1 [Compound P-4118, [4-(cyclopropylmethylamino)-7H-pyrrolo[2,3-d]pyrimidin-5-yl]-[6-[(6-ethyl-3-pyridyl)amino]-2-fluoro-3-pyridyl]methanone] | showed activity |
| CNc1ncnc2[nH]cc(C(=O)c3ccc(Nc4ccc(C(F)(F)F)nc4)nc3F)c12 [Compound P-4092, [2-fluoro-6-[[6-(trifluoromethyl)-3-pyridyl]amino]-3-pyridyl]-[4-(methylamino)-7H-pyrrolo[2,3-d]pyrimidin-5-yl]methanone] | showed activity |
| FC1(F)CCC(Nc2ncc(Cc3c[nH]c4ncc(Cl)cc34)cn2)CC1 [Compound P-3004] | showed activity |
| Fc1nc(Nc2ccc(C3CC3)nc2)ccc1Cc1c[nH]c2ncnc(C3CC3)c12 [Compound P-4041, (6-Cyclopropyl-pyridin-3-yl)-[5-(4-cyclopropyl-7H-pyrrolo[2,3-d]pyrimidin-5-ylmethyl)-6-fluoro-pyridin-2-yl]-amine] | showed activity |
| CCc1ccc(Nc2ccc(C(=O)c3c[nH]c4ncnc(N[C@@H](C)c5ccc(F)cc5)c34)c(F)n2)cn1 [Compound P-4097, [6-[(6-ethyl-3-pyridyl)amino]-2-fluoro-3-pyridyl]-[4-[[(1S)-1-(4-fluorophenyl)ethyl]amino]-7H-pyrrolo[2,3-d]pyrimidin-5-yl]methanone] | showed activity |
| Fc1cc(Cc2c[nH]c3ncnc(NC4CC4)c23)cnc1NC1CCC(F)(F)CC1 [Compound P-4127, N-cyclopropyl-5-[[6-[(4,4-difluorocyclohexyl)amino]-5-fluoro-3-pyridyl]methyl]-7H-pyrrolo[2,3-d]pyrimidin-4-amine] | showed activity |
| CCc1ccc(Nc2ccc(C(=O)c3c[nH]c4ncnc(NC)c34)c(F)n2)cn1 [Compound P-4124, [6-[(6-ethyl-3-pyridyl)amino]-2-fluoro-3-pyridyl]-[4-(methylamino)-7H-pyrrolo[2,3-d]pyrimidin-5-yl]methanone] | showed activity |
| CCOc1ccc(Nc2ccc(C(=O)c3c[nH]c4ncnc(C)c34)c(F)n2)cn1 [Compound P-4032, [6-(6-Ethoxy-pyridin-3-ylamino)-2-fluoro-pyridin-3-yl]-(4-methyl-7H-pyrrolo[2,3-d]pyrimidin-5-yl)-methanone] | showed activity |
| CNc1ncnc2[nH]cc(C(=O)c3ccc(NC4CCC(F)(F)CC4)nc3)c12 [Compound P-4089, [6-[(4,4-difluorocyclohexyl)amino]-3-pyridyl]-[4-(methylamino)-7H-pyrrolo[2,3-d]pyrimidin-5-yl]methanone] | showed activity |
| CC(C)Nc1ncnc2[nH]cc(C(=O)c3ccc(NC4CCCCC4)nc3F)c12 [Compound P-4101, [6-(cyclohexylamino)-2-fluoro-3-pyridyl]-[4-(isopropylamino)-7H-pyrrolo[2,3-d]pyrimidin-5-yl]methanone] | showed activity |
| CCNc1ncnc2[nH]cc(C(=O)c3cnc(NC4CCC(F)(F)CC4)c(F)c3)c12 [Compound P-4051, [6-[(4,4-difluorocyclohexyl)amino]-5-fluoro-3-pyridyl]-[4-(ethylamino)-7H-pyrrolo[2,3-d]pyrimidin-5-yl]methanone] | showed activity |
| CCN1CCC(Nc2ncnc3[nH]cc(C(=O)c4ccc(Nc5ccc(OC)nc5)nc4F)c23)CC1 [Compound P-4074, [4-[(1-ethyl-4-piperidyl)amino]-7H-pyrrolo[2,3-d]pyrimidin-5-yl]-[2-fluoro-6-[(6-methoxy-3-pyridyl)amino]-3-pyridyl]methanone] | showed activity |
| Cc1ccc(Nc2ccc(Cc3c[nH]c4ncnc(C5CC5)c34)c(F)n2)cn1 [Compound P-4030, [5-(4-Cyclopropyl-7H-pyrrolo[2,3-d]pyrimidin-5-ylmethyl)-6-fluoro-pyridin-2-yl]-(6-methyl-pyridin-3-yl)-amine] | showed activity |
| Fc1nc(NC2CCC(F)(F)CC2)ccc1Cc1c[nH]c2ncnc(NCC(F)(F)F)c12 [Compound P-4128, 5-[[6-[(4,4-difluorocyclohexyl)amino]-2-fluoro-3-pyridyl]methyl]-N-(2,2,2-trifluoroethyl)-7H-pyrrolo[2,3-d]pyrimidin-4-amine] | showed activity |
| O=C(c1cnc(NC2CCC(F)(F)CC2)c(F)c1)c1c[nH]c2ncnc(NCC(F)(F)F)c12 [Compound P-4052, [6-[(4,4-difluorocyclohexyl)amino]-5-fluoro-3-pyridyl]-[4-(2,2,2-trifluoroethylamino)-7H-pyrrolo[2,3-d]pyrimidin-5-yl]methanone] | showed activity |

— US8901118B2, “Compounds and methods for kinase modulation, and indications therefor” (Plexxikon Inc., priority 2010, dated 2014)
